In patent US5681691A, “Photographic element containing an improved pyrazolotriazole coupler” (Eastman Kodak Company, priority 1996, dated 1997):

Test: Coupler wandering in multilayer coatings (cross-section, optical microscope)
Settings: blue and red layer exposure only, C-41 at pH 10
Protocol: The formulas for the multilayer organic components are provided following the examples. The multilayer format used was an ISO 200 speed format (designated ML-A).
Coupler wandering (solution of the coupler at the high pH of the developer and diffusion into another imaging layer) was determined by giving the multilayer coatings a stepped exposure of the blue and red layers only (no exposure of the green layer) and processing using standard C-41 conditions at pH 10 as previously described in the application. These coatings were then cross-sectioned and examined by optical microscope. Since there was no green exposure, no magenta dye should be formed (except for fog). If the magenta coupler wanders, then magenta dye will be visible in the yellow (blue light sensitive) or cyan (red light sensitive) layers. Table 5 contains the wandering test results as well as the normalized green pH sensitivities of gamma (calculated as described above).
With `CCCCCCCCCCCCCCCCCCCCCC(=O)N(c1cccc(C(=O)O)c1)C(CC)c1n[nH]c2c(Cl)c(C)nn12` (stereo not shown) [Mag-11] the Wandering was “No”. In the case of `CCCCCCCCCCCCCCCC(=O)N(c1cccc(C(=O)O)c1)C(C)c1n[nH]c2c(Cl)c(C)nn12` (stereo not shown) [Mag C-10], the Wandering is reported as “Yes”. In the case of `CCCCCCCCCCCCC(c1n[nH]c2c(Cl)c(C)nn12)N(CCCCCCCC)C(=O)CCC(=O)O` (stereo not shown) [Mag C-1], the Wandering is reported as “No”. With `CCCCCCCCCCCCCCCCCCCCCC(=O)N(c1cccc(C(=O)O)c1)C(C)c1n[nH]c2c(Cl)c(C)nn12` (stereo not shown) [Mag-1] the Wandering was “No”. For `CCCCCCCCCCCCCCCc1cccc(OC(CCCC)C(=O)N(c2cccc(C(=O)O)c2)C(C)c2n[nH]c3c(Cl)c(C)nn23)c1` (stereo not shown) [Mag-7], the Wandering was “No”. With `CCCCCC(=O)N(c1cccc(C(=O)O)c1)C(C)c1n[nH]c2c(Cl)c(C)nn12` (stereo not shown) [Mag C-15] the Wandering was “Yes”. In the case of `CCCCCCCCCCCCCCCCCC(=O)N(c1cccc(C(=O)O)c1)C(C)c1n[nH]c2c(Cl)c(C)nn12` (stereo not shown) [Mag C-11], the Wandering is reported as “Yes”.
